From patent US20030049697A1, “Family of mechanosensitive human potassium channels activated by polyunsaturated fatty acids and their use” (CENTRE NATIONAL DE LA RECHERCHE SCIENTIFIQUE, C.N.R.S., priority 2000, published 2003)
At least one compound was matched to its structure with a doubt left.

Target: T1, hTRAAK (Homo sapiens, UniProt Q9NYG8)
T1 construct: expressed in transfected cells; host or cells: COS-7 cells, transient DEAE-dextran transfection of pIRES-CD8.hTRAAK
T1 sequence (Q9NYG8 1-393): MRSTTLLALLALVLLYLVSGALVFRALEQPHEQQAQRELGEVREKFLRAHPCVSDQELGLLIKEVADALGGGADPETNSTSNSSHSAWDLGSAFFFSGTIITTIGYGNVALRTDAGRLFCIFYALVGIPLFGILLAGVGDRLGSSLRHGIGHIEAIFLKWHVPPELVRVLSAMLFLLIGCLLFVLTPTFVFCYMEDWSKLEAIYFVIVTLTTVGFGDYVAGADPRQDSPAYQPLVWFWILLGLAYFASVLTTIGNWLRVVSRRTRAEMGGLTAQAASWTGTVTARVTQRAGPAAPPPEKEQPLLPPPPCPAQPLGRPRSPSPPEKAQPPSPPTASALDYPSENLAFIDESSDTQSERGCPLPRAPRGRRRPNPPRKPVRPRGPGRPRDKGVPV
Test: Whole cell configuration electrophysiology of hTRAAK current in transfected COS cells
Format: cell-based
Conditions: 10 μM, n=6 to 8
Experimental: Electrophysiological experiments were performed in COS cells transfected in a temporary manner.
It has been shown that certain members of the family of K^+ channels with two P domains (TREK-1 and TASK-1) are opened by volatile general anesthetics (Patel et al., 1999). We, therefore, also investigated the effect of chloroform on hTRAAK.
In fact, the opening of the channel is mediated by a deformation of the membrane (Maingret et al., 1999 (a); Patel et al., 1998).
The COS-7 cells were maintained in Eagle medium as modified by Dulbecco supplemented with 10% fetal calf's serum. The plasmid pIRES-cD8-hTRAAK was transfected using the conventional DEAE dextran procedure. The positive cells were visualized 48 h after transfection using the method of beads covered by the anti-CD8 antibody (Maingret et al., 1999 (a); Maingret et al., 1999 (b)).
For the experiments on whole cells and the outside-in experiments, the pipette solution (INT) contained 150 mM KCl, […], 5 mM EGTA and 10 mM HEPES, pH adjusted with KOH. The bath solution (EXT) contained 150 mM NaCl, 5 mM KCl, 3 mM MgCl2, 1 mM CaCl2 and 10 mM HEPES, pH 7.4 adjusted with NaOH. For the inside-out experiments, the solution in the pipette was EXT and the bath solution was INT. The EXT solution rich in K^+ contained 150 mM KCl in place of 150 mM NaCl. To study the selectivity of the ions, the relationships between the current and the voltage were obtained at different ext. K^+ concentrations. For each concentration, NaCl was replaced in the EXT solution by equimolar KCl.
All of the products were obtained from Sigma. The fatty acids were dissolved in ethanol at the concentration of 100 mM, put under argon and stored at […] for one week.

## CCCCCCCCCCCCCC(=O)O [myristate]
  sensitivity of hTRAAK to saturated fatty acids: insensitive

## CCCCCCCCCCCCCCCC(=O)O [palmitate]
  sensitivity of hTRAAK to saturated fatty acids: insensitive

## CCCCCCCCCCCCCCCCCC(=O)O [stearate]
  sensitivity of hTRAAK to saturated fatty acids: insensitive
